From patent publication US20260151501A1, “ANTIBODY-DRUG CONJUGATE COMPRISING ANTI-CLAUDIN-18.2 ANTIBODY, AND THERAPEUTIC USE THEREOF FOR CANCER” (ABTIS CO., LTD., priority 2022, published 2026)
These are yes or no findings as the source states them, for the method shown. Some results given as binding are weak or reduced against the parent protein; the word gives no strength.

Protein sequences, listed by entry. Tags and fused reporters are not part of them. Lines headed by an entry give the natural chain unless they say otherwise; changes in a name come on top. Chains listed by the source or under a name are the forms on record and can include a tag or linker.
CLDN18.2~VLP (virus-like particle) expressing the claudin18.2 protein, CSB-MP005498HU (A5), CUSABIO (P56856, form named): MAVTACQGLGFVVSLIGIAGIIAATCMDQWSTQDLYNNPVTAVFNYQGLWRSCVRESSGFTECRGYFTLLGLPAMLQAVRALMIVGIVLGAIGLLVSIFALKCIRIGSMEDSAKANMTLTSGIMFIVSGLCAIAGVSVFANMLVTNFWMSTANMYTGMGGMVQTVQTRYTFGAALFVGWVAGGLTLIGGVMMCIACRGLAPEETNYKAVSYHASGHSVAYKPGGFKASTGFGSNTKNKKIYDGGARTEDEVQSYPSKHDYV

Target: CLDN18.2~VLP (virus-like particle) expressing the claudin18.2 protein, CSB-MP005498HU (A5), CUSABIO (UniProt P56856)
Assay: indirect ELISA on coated CLDN18.2 VLP

B1: Antibody-A (anti-claudin18.2 antibody) (antibody, human IgG1, kappa, V domains shown)
VH: QVQLVESGGGVVQPGRSLRLSCAASGFSLTTYGVHWVRQAPGKGLEWVAVIWAGGSTNYNSALMSRFTISRDNSKNTLYLQMNSLRAEDTAVYYCARAAYYGNGLDYWGQGTMVTVSS
VL: DIVMTQSPLSLPVTPGEPASISCKSSQTLLNSGNQKNYLTWYLQKPGQSPQLLIYWASTGESGVPDRFSGSGSGTDFTLKISRVEAEDVGVYYCQNAYFYPFTFGGGTKVEIKR
In the case of B1, the binding is reported as “binds”.
